Results on 1 substance are retold here after patent US20020114804A1, “A METHOD OF TREATING INFECTION OF SUTURES AND PROSTHETIC DEVICES” (priority 1996, published 2002).

For this data set, the system named is Matrigel-coated filters. Put plainly: Binding of radiolabeled tenascin to Matrigel-coated filters. The procedure:
Chick tenascin was radiolabeled using chloramine T (67), and mixed with unlabeled tenascin at a 1:100 protein ratio. 250 μl of PBS containing varying amounts of this mixture was added to inserts coated with Matrigel or collagen I. The inserts were incubated at room temperature for 4 h at 37° C. in a humidified 95%air/5% CO2 atmosphere and washed with PBS. The filters were cut from the inserts with a scalpel, and assayed for 125I in a Beckman gamma counter.

Consider “chick brain tenascin: tenascin purified from 14-day embryonic chick brains”, for which, for the setting “4-6 h incubation at 37° C.”, the “125I-labeled tenascin eluted from the filters” value is on record as “less than 1%” and the “Tenascin remained bound to Matrigel-coated filter” value was ~99%. Also, under “at near plateau binding”, the “Tenascin adsorbed per filter” value is “about 0.2 μg”.
